The nature of one series: in vitro. The conditions noted are these: human. How it is done:
(§1) The D3 assay evaluates the ability of compounds to diffuse from the donor compartment through the D3/hCMEC cell membrane into the acceptor compartment. The D3 cells were seeded on a PET membrane (area 1.12 cm^2) with 3-µm pores of the 12-well plates with 12-mm inserts. […] The donor solution (750 µL) was added to the donor compartment (insert), and the same volume of Opti-MEM was added into the acceptor. The concentration of the drug in both compartments was measured by UV-VIS spectrophotometry in 5, 15, 30, and 60 min of incubation in triplicates. The apparent permeability coefficient (Papp) was calculated from the concentration ratios. Tightness of the D3 monolayer was conducted by the fluorescein isothiocyanate (FITC) test after each experiment. […] (1) Papp= dC/dt × Vr/A × C0 • A: area of the well/cell monolayer, • dC/dt: amount in the receiver compartment in given time, • Vr: volume of the receiver compartment, and • C0: the initial concentration of tested compounds.

The test system of another series is hCMEC/D3 cell monolayer. Description: in vitro. On the procedure:
as §1

Compound `COc1cc2c(cc1OC)C(=O)C(CC1CCN(Cc3ccccc3)CC1)C2` (centres unmarked) [Donepezil] had a Papp in the series “in vitro” of 24.2 ± 2.83 ×10⁻⁶ cm/s. Further, the “CNS (+/−)” value in the series on hCMEC/D3 cell monolayer is given as “CNS +”.

The Papp is the rate of passage across a membrane or cell layer, normalised by area and donor concentration. Higher therefore signals fast passage.
